Reference: PubChem BioAssay AID1487 (National Center for Advancing Translational Sciences (NCATS), 2009)
The list shows a part of the results. These are further read-outs of the screen, such as a control signal, another cell line or another target. No call is given for them. Compounds called inactive in the main read-out are mostly missing here. Potencies come from curve fits of mixed quality, noted in brackets.

Assay: qHTS Assay for Modulators of Lamin A Splicing
Conditions: HeLa LMNA splicing GFP/RFP minigene ratio, 48 h
In short: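 S3 HeLa stable clones carrying a lamin A-EGFP splicing minigene plus DsRed2 were seeded at 600 cells/well in Opti-MEM with 2% FBS, pin-dosed and incubated 48 h at 37°C. Acumen cytometry (488 nm) gave the GFP/RFP total-intensity ratio.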

[1] = measured here: RFP viability control channel
[2] = measured here: GFP splicing reporter channel

Structure (SMILES): Cc1ccc(CNn2cnnc2SCc2ccc(F)cc2)cc1
- AC50 [1]: 17.8 µM [rising, single point]

Structure (SMILES): Cc1nc2ncnn2c(N2CCCC(C(=O)Nc3ccc4c(c3)CCC4)C2)c1C (centres undefined)
- AC50 [2]: 22.4 µM [rising, partial curve, poor fit]
- AC50 [1]: 12.6 µM [rising, partial curve]

Structure (SMILES): O=C(CCc1ccccc1)N(Cc1cccnc1)c1nc2c(F)cc(F)cc2s1
- AC50 [1]: 12.6 µM [falling, partial curve, poor fit]

Structure (SMILES): CCN(C(=O)CSc1ncn[nH]1)c1cccc2ccccc12
- AC50 [2]: 35.5 µM [rising, single point]
- AC50 [1]: 31.6 µM [rising, single point]

Structure (SMILES): COc1ccc(-n2nnnc2-c2cccc(OC)c2)cc1
- AC50 [1]: 3.16 µM [rising, full curve]

Structure (SMILES): O=C(O)CC/C(=N/Nc1ncc(C(F)(F)F)cc1Cl)C(=O)O
- AC50 [2]: 0.178 µM [rising, full curve, poor fit]

Structure (SMILES): CCOc1ccc2nc(NC(=O)CSc3nc4cccnc4n3C)sc2c1
- AC50 [1]: 35.5 µM [falling, single point]

Structure (SMILES): O=C(c1ccccc1)C1CN(Cc2ccccc2)CCC1(O)c1ccccc1 (centres undefined)
- AC50 [2]: 2 µM [falling, full curve]
- AC50 [1]: 11.2 µM [falling, partial curve]

Structure (SMILES): Cc1ccc(/C=N/NC(=O)c2n[nH]c3c2CCCC3)cc1
- AC50 [2]: 0.631 µM [falling, full curve]
- AC50 [1]: 0.631 µM [falling, full curve]

Structure (SMILES): O=C(N/N=C/C=C\c1ccccc1[N+](=O)[O-])c1cc(-c2ccccc2)nc2ccccc12
- AC50 [1]: 17.8 µM [rising, partial curve]

Structure (SMILES): O=C(NCCc1csc(-c2ccc(Cl)cc2)n1)c1ccco1
- AC50 [2]: 2 µM [falling, full curve, poor fit]
- AC50 [1]: 1.78 µM [falling, full curve, poor fit]

Structure (SMILES): CCN(C(=O)c1cnc(N2CCN(c3ncccn3)CC2)c2ccccc12)c1cccc(Cl)c1
- AC50 [2]: 20 µM [falling, partial curve, poor fit]
- AC50 [1]: 22.4 µM [falling, partial curve]

Structure (SMILES): CCC(C)(C)C(=O)Nc1ncc(S(=O)(=O)c2ccc([N+](=O)[O-])cc2)s1
- AC50 [1]: 15.8 µM [rising, single point]

Structure (SMILES): COc1ccc(C)cc1NC(=O)CNC(=O)Cn1ccc2ccccc2c1=O
- AC50 [1]: 0.00562 µM [rising, full curve, poor fit]

Structure (SMILES): Cn1c(SCC(N)=O)nc2c([nH]c3ccccc32)c1=O
- AC50 [2]: 0.891 µM [falling, full curve, poor fit]

Structure (SMILES): Clc1ccc(-n2ncc3c(NCc4ccccn4)ncnc32)cc1
- AC50 [1]: 35.5 µM [rising, single point]

Structure (SMILES): COc1cccc(NC(=O)c2ccc(C(=O)c3ccccc3)o2)c1
- AC50 [2]: 35.5 µM [falling, single point]

Structure (SMILES): COc1ccc(CNC(=O)COc2ccc(C(=O)c3ccc(F)cc3)cc2)cc1
- AC50 [1]: 5.62 µM [rising, single point]

Structure (SMILES): O=C(c1n[nH]c(=O)c2ccccc12)N1CCN(c2ccccc2Cl)CC1
- AC50 [2]: 14.1 µM [rising, single point]
- AC50 [1]: 17.8 µM [rising, single point]

Structure (SMILES): Cc1ccccc1OCc1nc2ccccc2c(=O)n1/N=C/c1c[nH]c2ccccc12
- AC50 [2]: 35.5 µM [falling, single point]
- AC50 [1]: 35.5 µM [falling, single point]

Structure (SMILES): Cc1cccc(NC(=O)CSc2nc3ccc(NC(=O)COc4ccc(Cl)cc4)cc3s2)c1
- AC50 [2]: 14.1 µM [falling, single point]
- AC50 [1]: 35.5 µM [falling, single point]

Structure (SMILES): C=CCNC(=O)C(C#N)c1nc2ccccc2nc1N1CCCCCC1 (centres undefined)
- AC50 [1]: 11.2 µM [rising, single point]

Structure (SMILES): Cc1cccc(NC(=O)c2cc3c(=O)n(Cc4ccco4)ccc3nc2C)c1
- AC50 [1]: 11.2 µM [rising, partial curve]

Structure (SMILES): Cc1nn(-c2ccccc2)c2c1N(CC(=O)NCc1ccc(N(C)C)cc1)C(=O)CS2
- AC50 [2]: 0.01 µM [falling, full curve, poor fit]
- AC50 [1]: 0.316 µM [falling, full curve, poor fit]

Structure (SMILES): COC(=O)c1cn(NC(=O)c2ccc(OC)c([N+](=O)[O-])c2)c(=O)c2ccccc12
- AC50 [2]: 3.16 µM [falling, full curve, poor fit]
- AC50 [1]: 3.16 µM [falling, partial curve, poor fit]

Structure (SMILES): O=C1C2C3C=CC(C3=C3CCCCC3)C2C(=O)N1Cc1ccccc1 (centres undefined)
- AC50 [2]: 28.2 µM [rising, single point]
- AC50 [1]: 28.2 µM [rising, single point]

Structure (SMILES): CN(c1ncnc2c1c(-c1ccccc1)cn2-c1ccc(F)cc1)C1CCCCC1
- AC50 [1]: 8.91 µM [rising, single point]

Structure (SMILES): Cc1nn(Cc2ccccc2Cl)c2sc(C(=O)OC3CCCC3=O)cc12 (centres undefined)
- AC50 [2]: 22.4 µM [rising, single point]
- AC50 [1]: 22.4 µM [rising, single point]

Structure (SMILES): CC(C)OC(=O)c1cc(NC(=S)Nc2ccc([N+](=O)[O-])cc2)cc(C(=O)OC(C)C)c1
- AC50 [2]: 11.2 µM [rising, single point]
- AC50 [1]: 20 µM [rising, single point]

Structure (SMILES): O=C(NNc1nc2cc3c(cc2s1)OCO3)c1cccc(F)c1
- AC50 [1]: 35.5 µM [rising, single point]

Structure (SMILES): Cc1cc(SCC(=O)c2cccs2)n2nc(C)c(-c3ccc(Cl)cc3)c2n1
- AC50 [1]: 0.0562 µM [rising, full curve]

Structure (SMILES): O=C(O)[C@@H]1[C@@H]2C[C@H]3c4[nH]c5ccccc5c4CCN3C[C@@H]2CC[C@@H]1O
- AC50 [2]: 0.355 µM [falling, partial curve]

Structure (SMILES): CN(CC(=O)Nc1ccc(F)c(F)c1F)c1cnccn1
- AC50 [1]: 2.24 µM [falling, full curve]

Structure (SMILES): CNc1nc(-c2ccc3c(c2)CCN3S(=O)(=O)c2ccccc2)c(C)s1
- AC50 [2]: 2 µM [falling, full curve]
- AC50 [1]: 15.8 µM [falling, partial curve]
